Values are relative to the signal before dosing, not to a vehicle control; the signal also falls without drug.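 Fibroblast labels denote human fibroblasts, mainly primary ones from uterus (C12385, HUF), lung (H6013), bone (Hs27A), adrenal (HADF) and skin (WS1), plus mammary HMF and breast cancer-associated Hs343T. Cancer cells are basal-like or mesenchymal-like triple-negative breast cancer lines. A hit is a response shift exceeding 3x replicate standard deviation. The tissue of the other fibroblasts is not given here.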
Tested on: HCC1143
Assay: relative JC-1 red fluorescence (viability) vs pre-drug, coculture with fibroblast (fraction); higher = more viable cancer cells
Method: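 JC-1 labelled TNBC cells cocultured 1:1 (1,500 cells each) with CellTrace Violet stained primary or stromal fibroblasts in 384-well plates in FluoroBrite medium, treated with one of 42 anticancer drugs at 0.1, 1, 10 or 100 uM. JC-1 red fluorescence (mitochondrial integrity in cancer cells only) was read by plate reader every 8 h for 72 h. Values are normalised to each well's pre-drug value. The stock of one drug was tenfold lower, so its dose labels may be too high.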

CO[C@@]12[C@H](COC(N)=O)C3=C(C(=O)C(C)=C(N)C3=O)N1C[C@@H]1N[C@@H]12 [Mitomycin C]
relative JC-1 red fluorescence
Details | 8 h | 16 h | 24 h | 32 h | 40 h | 48 h | 56 h | 64 h | 72 h
0.1 µM, coculture fibroblast: C12385 | 0.844 | 0.768 | 0.683 | 0.611 | 0.536 | 0.482 | 0.434 | 0.387 | 0.353
0.1 µM, coculture fibroblast: H6013 | 0.759 | 0.663 | 0.629 | 0.614 | 0.515 | 0.479 | 0.434 | 0.399 | 0.387
0.1 µM, coculture fibroblast: H6019 | 0.857 | 0.804 | 0.793 | 0.749 | 0.702 | 0.643 | 0.597 | 0.553 | 0.504
0.1 µM, coculture fibroblast: H6076 | 0.81016 | 0.744 | 0.708 | 0.677 | 0.607 | 0.588 | 0.5433 | 0.5131 | 0.506
0.1 µM, coculture fibroblast: H6231 | 0.796 | 0.85 | 0.7304 | 0.5703 | 0.6173 | 0.5806 | 0.531 | 0.485 | 0.444
0.1 µM, coculture fibroblast: HADF | 0.7329 | 0.655 | 0.631 | 0.659 | 0.551 | 0.521 | 0.488 | 0.463 | 0.47
0.1 µM, coculture fibroblast: HCFa | 0.7956 | 0.679 | 0.651 | 0.641 | 0.543 | 0.497 | 0.457 | 0.421 | 0.418
0.1 µM, coculture fibroblast: HCPF | 0.7769 | 0.825 | 0.748 | 0.609 | 0.657 | 0.616 | 0.58 | 0.538 | 0.511
0.1 µM, coculture fibroblast: HHSteC | 0.8 | 0.6689 | 0.6222 | 0.5805 | 0.489 | 0.4549 | 0.406 | 0.376 | 0.33
0.1 µM, coculture fibroblast: HMF | 0.777 | 0.855 | 0.753 | 0.617 | 0.626 | 0.589 | 0.538 | 0.506 | 0.466
0.1 µM, coculture fibroblast: HPFa | 0.921 | 0.818 | 0.784 | 0.694 | 0.623 | 0.585 | 0.525 | 0.471 | 0.427
0.1 µM, coculture fibroblast: HUF | 0.877 | 0.755 | 0.686 | 0.5979 | 0.542 | 0.497 | 0.447 | 0.407 | 0.377
0.1 µM, coculture fibroblast: Hs5 | 0.877 | 0.878 | 0.856 | 0.854 | 0.784 | 0.776 | 0.755 | 0.739 | 0.753
0.1 µM, coculture fibroblast: Hs27A | 0.711 | 0.623 | 0.59 | 0.6137 | 0.5141 | 0.509 | 0.475 | 0.467 | 0.47
0.1 µM, coculture fibroblast: Hs343T | 0.8128 | 0.816 | 0.7626 | 0.699 | 0.673 | 0.643 | 0.592 | 0.573 | 0.537
0.1 µM, coculture fibroblast: WS1 | 0.8027 | 0.706 | 0.638 | 0.571 | 0.524 | 0.486 | 0.437 | 0.399 | 0.372
1 µM, coculture fibroblast: C12385 | 0.829 | 0.798 | 0.752 | 0.689 | 0.62 | 0.5806 | 0.5512 | 0.52 | 0.504
1 µM, coculture fibroblast: H6013 | 0.721 | 0.657 | 0.6209 | 0.594 | 0.52 | 0.497 | 0.458 | 0.436 | 0.398
1 µM, coculture fibroblast: H6019 | 0.7909 | 0.711 | 0.657 | 0.588 | 0.536 | 0.501 | 0.456 | 0.419 | 0.383
1 µM, coculture fibroblast: H6076 | 0.7797 | 0.774 | 0.705 | 0.648 | 0.599 | 0.57 | 0.531 | 0.507 | 0.497
1 µM, coculture fibroblast: H6231 | 0.8034 | 0.765 | 0.7 | 0.615 | 0.6 | 0.57 | 0.53 | 0.493 | 0.478
1 µM, coculture fibroblast: HADF | 0.714 | 0.645 | 0.607 | 0.599 | 0.51 | 0.481 | 0.455 | 0.427 | 0.417
1 µM, coculture fibroblast: HCFa | 0.7545 | 0.668 | 0.612 | 0.583 | 0.502 | 0.466 | 0.427 | 0.395 | 0.366
1 µM, coculture fibroblast: HCPF | 0.787 | 0.778 | 0.706 | 0.607 | 0.625 | 0.58 | 0.55 | 0.512 | 0.488
1 µM, coculture fibroblast: HHSteC | 0.798 | 0.74 | 0.698 | 0.662 | 0.595 | 0.567 | 0.537 | 0.509 | 0.462
1 µM, coculture fibroblast: HMF | 0.762 | 0.792 | 0.713 | 0.6 | 0.598 | 0.571 | 0.522 | 0.502 | 0.479
1 µM, coculture fibroblast: HPFa | 0.883 | 0.793 | 0.763 | 0.678 | 0.621 | 0.587 | 0.533 | 0.497 | 0.456
1 µM, coculture fibroblast: HUF | 0.846 | 0.76 | 0.71 | 0.634 | 0.586 | 0.557 | 0.508 | 0.473 | 0.443
1 µM, coculture fibroblast: Hs5 | 0.8455 | 0.8082 | 0.7891 | 0.7919 | 0.717 | 0.702 | 0.69 | 0.677 | 0.683
1 µM, coculture fibroblast: Hs27A | 0.689 | 0.629 | 0.588 | 0.611 | 0.505 | 0.51 | 0.49 | 0.484 | 0.474
1 µM, coculture fibroblast: Hs343T | 0.76 | 0.769 | 0.709 | 0.606 | 0.586 | 0.548 | 0.496 | 0.479 | 0.445
1 µM, coculture fibroblast: WS1 | 0.7918 | 0.706 | 0.667 | 0.602 | 0.555 | 0.513 | 0.476 | 0.449 | 0.42

Reference: the supplement of paper PMC6078165
